Data published in the supplement of paper PMC12823440, “Inhibitors supercharge kinase turnover through native proteolytic circuits” (Nature, 2025).
This is one part of the list. Hit calls seldom repeat between salt and free forms of one compound.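 Kinases, fused to nanoluciferase, were expressed in K562 cells; luminescence was measured every 4 h from 2 to 18 h as percent of control (DMSO = 100%, positive control = 0%). A time point is decreased if signal falls significantly (2 sigma). Hits were called by the authors by a rule that is not shown; the count of time points alone does not decide it.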

Amino acid sequences for entries named in this document (tags omitted). A change or cut given only in a name is not applied to a line headed by its entry.
UniProt Q12851: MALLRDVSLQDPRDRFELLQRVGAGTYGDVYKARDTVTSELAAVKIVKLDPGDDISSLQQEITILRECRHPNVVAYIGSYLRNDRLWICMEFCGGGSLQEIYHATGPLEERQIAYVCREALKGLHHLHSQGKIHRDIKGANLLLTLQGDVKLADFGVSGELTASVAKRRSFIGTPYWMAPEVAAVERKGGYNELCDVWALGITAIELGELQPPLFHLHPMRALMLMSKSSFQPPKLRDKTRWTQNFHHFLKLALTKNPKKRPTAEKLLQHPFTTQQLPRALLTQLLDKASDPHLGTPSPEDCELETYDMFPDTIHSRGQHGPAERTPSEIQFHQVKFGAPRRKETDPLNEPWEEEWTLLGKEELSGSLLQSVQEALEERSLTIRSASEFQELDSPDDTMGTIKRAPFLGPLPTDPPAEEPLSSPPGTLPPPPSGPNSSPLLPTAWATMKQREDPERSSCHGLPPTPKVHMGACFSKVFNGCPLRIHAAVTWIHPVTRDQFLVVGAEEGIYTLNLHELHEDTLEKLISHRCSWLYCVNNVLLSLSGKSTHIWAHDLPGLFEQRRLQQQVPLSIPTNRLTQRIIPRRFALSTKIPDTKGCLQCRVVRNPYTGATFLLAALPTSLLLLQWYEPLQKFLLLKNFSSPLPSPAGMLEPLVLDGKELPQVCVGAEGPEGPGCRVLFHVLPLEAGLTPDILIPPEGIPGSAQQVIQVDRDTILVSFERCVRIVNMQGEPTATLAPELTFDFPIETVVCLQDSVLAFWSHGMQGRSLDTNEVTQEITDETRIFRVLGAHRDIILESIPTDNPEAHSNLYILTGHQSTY
UniProt P36888, whole entry: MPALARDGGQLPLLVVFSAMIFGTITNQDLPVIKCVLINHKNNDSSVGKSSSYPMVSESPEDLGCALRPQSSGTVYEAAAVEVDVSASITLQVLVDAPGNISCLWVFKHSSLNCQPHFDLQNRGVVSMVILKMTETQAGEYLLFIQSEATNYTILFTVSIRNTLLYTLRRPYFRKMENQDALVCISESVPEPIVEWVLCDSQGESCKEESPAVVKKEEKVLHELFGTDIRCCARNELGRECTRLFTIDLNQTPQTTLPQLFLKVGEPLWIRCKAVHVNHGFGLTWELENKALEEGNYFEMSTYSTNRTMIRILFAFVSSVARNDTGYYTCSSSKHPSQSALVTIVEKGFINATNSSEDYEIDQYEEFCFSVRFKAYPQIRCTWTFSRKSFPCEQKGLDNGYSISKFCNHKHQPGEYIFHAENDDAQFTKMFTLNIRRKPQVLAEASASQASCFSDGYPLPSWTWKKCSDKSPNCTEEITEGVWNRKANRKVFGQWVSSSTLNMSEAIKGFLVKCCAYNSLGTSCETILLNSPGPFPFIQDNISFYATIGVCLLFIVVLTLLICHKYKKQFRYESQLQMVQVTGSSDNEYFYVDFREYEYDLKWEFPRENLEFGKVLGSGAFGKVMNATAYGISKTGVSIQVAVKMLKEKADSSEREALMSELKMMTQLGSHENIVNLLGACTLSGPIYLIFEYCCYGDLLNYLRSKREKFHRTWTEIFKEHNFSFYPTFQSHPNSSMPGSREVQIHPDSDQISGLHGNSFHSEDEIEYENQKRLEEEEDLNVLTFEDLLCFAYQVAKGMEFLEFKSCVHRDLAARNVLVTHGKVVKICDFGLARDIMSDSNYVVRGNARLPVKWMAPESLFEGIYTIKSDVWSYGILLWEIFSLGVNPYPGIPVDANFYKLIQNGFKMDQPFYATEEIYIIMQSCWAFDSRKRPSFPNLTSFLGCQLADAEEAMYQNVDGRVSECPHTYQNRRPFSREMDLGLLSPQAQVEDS
UniProt O96013: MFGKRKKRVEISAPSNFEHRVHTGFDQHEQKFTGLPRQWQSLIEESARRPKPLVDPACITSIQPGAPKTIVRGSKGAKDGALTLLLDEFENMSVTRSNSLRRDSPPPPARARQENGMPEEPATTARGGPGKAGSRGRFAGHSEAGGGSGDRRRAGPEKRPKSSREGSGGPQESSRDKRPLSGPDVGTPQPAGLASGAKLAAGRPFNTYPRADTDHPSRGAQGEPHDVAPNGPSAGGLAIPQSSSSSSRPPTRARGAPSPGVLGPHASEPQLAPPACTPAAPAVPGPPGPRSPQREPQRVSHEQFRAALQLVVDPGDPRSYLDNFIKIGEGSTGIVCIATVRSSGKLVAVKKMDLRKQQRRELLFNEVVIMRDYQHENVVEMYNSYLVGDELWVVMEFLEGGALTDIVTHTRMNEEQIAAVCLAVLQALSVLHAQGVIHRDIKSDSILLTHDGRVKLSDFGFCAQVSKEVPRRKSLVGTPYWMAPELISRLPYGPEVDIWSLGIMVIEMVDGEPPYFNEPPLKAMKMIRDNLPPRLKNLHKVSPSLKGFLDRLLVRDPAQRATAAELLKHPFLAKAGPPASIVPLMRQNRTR
UniProt Q00534, whole entry: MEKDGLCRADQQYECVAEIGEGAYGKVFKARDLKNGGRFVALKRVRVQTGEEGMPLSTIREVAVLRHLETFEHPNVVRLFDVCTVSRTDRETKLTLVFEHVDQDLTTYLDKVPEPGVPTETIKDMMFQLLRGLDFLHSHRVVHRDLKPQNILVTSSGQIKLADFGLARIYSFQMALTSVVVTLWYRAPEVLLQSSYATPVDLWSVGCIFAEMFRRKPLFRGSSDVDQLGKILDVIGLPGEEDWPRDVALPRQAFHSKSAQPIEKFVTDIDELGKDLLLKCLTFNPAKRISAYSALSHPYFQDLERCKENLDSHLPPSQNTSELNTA
UniProt P07949, whole entry M918T, looked up: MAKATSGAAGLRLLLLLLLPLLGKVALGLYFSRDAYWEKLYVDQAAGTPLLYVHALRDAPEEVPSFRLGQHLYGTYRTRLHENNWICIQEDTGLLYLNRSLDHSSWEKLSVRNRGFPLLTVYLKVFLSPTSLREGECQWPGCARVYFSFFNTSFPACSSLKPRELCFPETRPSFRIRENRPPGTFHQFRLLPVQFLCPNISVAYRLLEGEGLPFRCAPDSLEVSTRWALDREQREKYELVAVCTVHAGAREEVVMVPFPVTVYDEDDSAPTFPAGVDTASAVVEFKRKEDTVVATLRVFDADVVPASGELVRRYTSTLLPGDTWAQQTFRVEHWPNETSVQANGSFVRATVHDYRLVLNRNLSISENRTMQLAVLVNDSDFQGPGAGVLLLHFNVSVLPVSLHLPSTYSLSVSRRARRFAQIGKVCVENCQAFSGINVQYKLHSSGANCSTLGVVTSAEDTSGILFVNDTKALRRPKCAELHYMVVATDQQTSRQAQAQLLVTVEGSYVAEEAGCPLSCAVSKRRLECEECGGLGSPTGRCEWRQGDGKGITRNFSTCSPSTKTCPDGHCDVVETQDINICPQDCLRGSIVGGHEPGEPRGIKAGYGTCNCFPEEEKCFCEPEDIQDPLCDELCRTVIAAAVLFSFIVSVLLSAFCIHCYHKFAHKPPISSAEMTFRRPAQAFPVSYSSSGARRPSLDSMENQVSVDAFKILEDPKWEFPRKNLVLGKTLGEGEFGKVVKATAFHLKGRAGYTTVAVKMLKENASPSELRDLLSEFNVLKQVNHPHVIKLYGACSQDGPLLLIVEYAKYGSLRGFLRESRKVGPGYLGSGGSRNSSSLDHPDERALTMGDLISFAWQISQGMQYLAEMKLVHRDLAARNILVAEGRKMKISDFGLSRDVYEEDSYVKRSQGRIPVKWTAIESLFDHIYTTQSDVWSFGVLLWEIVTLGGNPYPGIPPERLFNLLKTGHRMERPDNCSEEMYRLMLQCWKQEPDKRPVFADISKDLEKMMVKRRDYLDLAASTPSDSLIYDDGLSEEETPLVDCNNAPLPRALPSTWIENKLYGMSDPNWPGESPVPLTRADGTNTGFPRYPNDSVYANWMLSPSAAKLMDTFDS

Legend:
Assay in all cases: number of time points (of 5) at which kinase-Nluc abundance scored as decreased, DMSO-normalised (count); higher = more persistent destabilization
[1] = compound: COc1cc2c(-c3cnn4cc(N5CCC(N6CCN(C)CC6)CC5)cnc34)ccnc2cc1F; conditions: 10 µM; K562; 2-18 h
Cediranib (maleate) = compound: COc1cc2c(Oc3ccc4[nH]c(C)cc4c3F)ncnc2cc1OCCCN1CCCC1 [Cediranib (maleate)]; conditions: 2.5 µM; K562; 2-18 h
Cediranib = compound: COc1cc2c(Oc3ccc4[nH]c(C)cc4c3F)ncnc2cc1OCCCN1CCCC1 [Cediranib]; conditions: 2.5 µM; K562; 2-18 h
[2] = compound: COc1cc2c(cc1OC)-c1c(C)c3ccc(OC)c(OC)c3c[n+]1CC2 [Dehydrocorydaline (chloride)]; conditions: 10 µM; K562; 2-18 h
Dehydrocorydaline = compound: COc1cc2c(cc1OC)-c1c(C)c3ccc(OC)c(OC)c3c[n+]1CC2 [Dehydrocorydaline]; conditions: 10 µM; K562; 2-18 h
[3] = compound: COc1cc2nccc(Nc3cc(OC)c(OC)c(OC)c3)c2cc1OC [GAK inhibitor 49 (hydrochloride)]; conditions: 10 µM; K562; 2-18 h
GAK inhibitor 49 = compound: COc1cc2nccc(Nc3cc(OC)c(OC)c(OC)c3)c2cc1OC [GAK inhibitor 49]; conditions: 10 µM; K562; 2-18 h
Cabozantinib (S-malate) = compound: COc1cc2nccc(Oc3ccc(NC(=O)C4(C(=O)Nc5ccc(F)cc5)CC4)cc3)c2cc1OC [Cabozantinib (S-malate)]; conditions: 10 µM; K562; 2-18 h
Cabozantinib = compound: COc1cc2nccc(Oc3ccc(NC(=O)C4(C(=O)Nc5ccc(F)cc5)CC4)cc3)c2cc1OC [Cabozantinib]; conditions: 2.5 µM; K562; 2-18 h
KN-93 (hydrochloride) = compound: COc1ccc(S(=O)(=O)N(CCO)c2ccccc2CN(C)C/C=C/c2ccc(Cl)cc2)cc1 [KN-93 (hydrochloride)]; conditions: 2.5 µM; K562; 2-18 h
KN-93 (phosphate) = compound: COc1ccc(S(=O)(=O)N(CCO)c2ccccc2CN(C)C/C=C/c2ccc(Cl)cc2)cc1 [KN-93 (phosphate)]; conditions: 2.5 µM; K562; 2-18 h
KN-92 (hydrochloride) = compound: COc1ccc(S(=O)(=O)Nc2ccccc2CN(C)C/C=C/c2ccc(Cl)cc2)cc1 [KN-92 (hydrochloride)]; conditions: 2.5 µM; K562; 2-18 h
KN-92 (phosphate) = compound: COc1ccc(S(=O)(=O)Nc2ccccc2CN(C)C/C=C/c2ccc(Cl)cc2)cc1 [KN-92 (phosphate)]; conditions: 2.5 µM; K562; 2-18 h
AX-024 hydrochloride = compound: COc1ccc2c(c1)C(c1ccc(F)cc1)=C(CN1CCCC1)CO2 [AX-024 hydrochloride]; conditions: 10 µM; K562; 2-18 h
[4] = compound: COc1ccc2c(c1)C(c1ccc(F)cc1)=C(CN1CCCC1)CO2; conditions: 10 µM; K562; 2-18 h
Ilaprazole (sodium) = compound: COc1ccnc(C[S+]([O-])c2nc3cc(-n4cccc4)ccc3[nH]2)c1C [Ilaprazole (sodium)]; conditions: 10 µM; K562; 2-18 h
Ilaprazole = compound: COc1ccnc(C[S+]([O-])c2nc3cc(-n4cccc4)ccc3[nH]2)c1C [Ilaprazole]; conditions: 10 µM; K562; 2-18 h
PLX5622 (hemifumarate) = compound: COc1ncc(F)cc1CNc1ccc(Cc2c[nH]c3ncc(C)cc23)c(F)n1 [PLX5622 (hemifumarate)]; conditions: 10 µM; K562; 2-18 h
[5] = compound: COc1ncc(F)cc1CNc1ccc(Cc2c[nH]c3ncc(C)cc23)c(F)n1; conditions: 10 µM; K562; 2-18 h
[6] = compound: CS(=O)(=O)N1CCN(Cc2cc3nc(-c4cccc5[nH]ncc45)nc(N4CCOCC4)c3s2)CC1 [Pictilisib (dimethanesulfonate)]; conditions: 10 µM; K562; 2-18 h

Row | Target | number of time points [1] | number of time points (Cediranib (maleate)) | number of time points (Cediranib) | number of time points [2] | number of time points (Dehydrocorydaline) | number of time points [3] | number of time points (GAK inhibitor 49) | number of time points (Cabozantinib (S-malate)) | number of time points (Cabozantinib) | number of time points (KN-93 (hydrochloride)) | number of time points (KN-93 (phosphate)) | number of time points (KN-92 (hydrochloride)) | number of time points (KN-92 (phosphate)) | number of time points (AX-024 hydrochloride) | number of time points [4] | number of time points (Ilaprazole (sodium)) | number of time points (Ilaprazole) | number of time points (PLX5622 (hemifumarate)) | number of time points [5] | number of time points [6]
1 | MAP4K2 (UniProt Q12851) | 0 | 0 | 0 | 0 | 0 | 0 | 0 | 0 | 0 | 0 | 0 | 0 | 0 | 0 | 0 | 0 | 0 | 0 | 0 | 0
2 | FLT3 (UniProt P36888) | 0 | 0 | 0 | 0 | 0 | 0 | 3 | 2 | 1 | 0 | 0 | 0 | 0 | 0 | 0 | 0 | 0 | 0 | 0 | 0
3 | PAK4 (UniProt O96013) | 0 | 0 | 0 | 0 | 0 | 0 | 0 | 0 | 0 | 0 | 0 | 0 | 0 | 0 | 0 | 0 | 0 | 0 | 0 | 0
4 | CDK6 (UniProt Q00534) | 0 | 0 | 0 | 0 | 0 | 0 | 0 | 2 | 0 | 0 | 0 | 0 | 0 | 0 | 0 | 0 | 0 | 0 | 0 | 0
5 | EGFR_G719S_T790M (UniProt P00533) | 0 | 0 | 0 | 0 | 0 | 1 | 2 | 0 | 0 | 0 | 0 | 0 | 0 | 0 | 0 | 0 | 0 | 0 | 0 | 0
6 | RET_M918T (clone: RET_mut) (UniProt P07949) | 0 | 0 | 0 | 0 | 0 | 0 | 0 | 1 | 1 | 0 | 0 | 0 | 0 | 0 | 0 | 0 | 0 | 0 | 0 | 0
